Reference: PubChem BioAssay AID686937 (Drosophila RNAi Screening Center, 2013)
The screen tested about 23,000 reagents; below is a random part of those with a known target gene and a result. 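Reduced-secretion tags in replicate 1 do not always agree with the z-scores; no criterion for assigning the tags was given.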 A plus sign joins genes that one reagent is predicted to hit. No sequences are given here. Not stated in the record: the amount of reagent.

- Assay: 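Knock-downs that reduce output of a secreted reporter enzyme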 (primary screen)
- Cells: Drosophila S2 cells expressing secreted horseradish peroxidase
- Knock-down reagent: long dsRNA against Drosophila genes
- Time to read-out: about 5.5 days (5 days dsRNA, then 12 h reporter induction)
- Treatment: reporter expression induced after 5 days of dsRNA, read 12 h later; inducer not stated
- Measurement: 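Chemiluminescent measurement of peroxidase in the medium 12 h after reporter induction, following 5 days of dsRNA, given as a z-score per plate; higher means more secretion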
- Scale: z-score: higher = more reporter secreted into medium

| Gene | DRSC id | z-score, replicate 1 | z-score, replicate 2 | z-score, replicate 3 | z-score, replicate 4 | phenotype, replicate 1 |
| --- | --- | --- | --- | --- | --- | --- |
| FMRFaR (FMRFamide Receptor) | DRSC08555 | 0.35 | 0.28 | – | – | – |
| AANATL7 (Arylalkylamine N-acetyltransferase-like 7) | DRSC18616 | 0.23 | 0.23 | – | – | – |
| RpL9 (Ribosomal protein L9) | DRSC03418 | -4.7 | -4.54 | – | – | reduced secretion |
| sima (similar) | DRSC17055 | -0.36 | -0.4 | – | – | – |
| salm (spalt major) | DRSC03606 | 0.07 | 0.35 | – | – | – |
| CG12746 | DRSC12218 | 0.28 | 0.41 | – | – | – |
| RNASEK (Ribonuclease kappa) | DRSC21641 | 2.01 | 0.3 | – | – | – |
| CG31294 | DRSC22217 | -0.23 | -0.07 | – | – | – |
| wb (wing blister) | DRSC01375 | -3.09 | -3.65 | – | – | reduced secretion |
| wb (wing blister) | DRSC03634 | -0.05 | 0.37 | – | – | – |
| LysP (Lysozyme P) | DRSC08676 | 0.63 | 0.56 | – | – | – |
| CG17134 | DRSC02583 | -0.04 | -0.01 | – | – | – |
| Sbds (SBDS ribosome maturation factor) | DRSC10992 | 0.28 | 0.25 | – | – | – |
| CG10543 | DRSC04081 | 0.01 | 0.09 | – | – | – |
| sut4 (sugar transporter 4) | DRSC07703 | 0.56 | 0.47 | – | – | – |
| Dek | DRSC07418 | 0.18 | 0.12 | – | – | – |
| CG1889 + CG43386 | DRSC17979 | 0.36 | 0.5 | – | – | – |
| Vha68-3 (Vacuolar H[+] ATPase 68kD subunit 3) | DRSC02809 | 0.8 | 0.37 | – | – | – |
| RtGEF (Rho-type guanine nucleotide exchange factor) | DRSC03604 | 0.35 | 0.51 | – | – | – |
| RtGEF (Rho-type guanine nucleotide exchange factor) | DRSC22207 | 0.53 | -0.04 | – | – | – |
| inaF-A | DRSC19660 | 0.11 | -0.49 | – | – | – |
| hbt + CG43779 | DRSC02503 | 1.04 | 0.32 | – | – | – |
| CG15820 | DRSC08480 | 0.18 | 0.31 | – | – | – |
| Serinc (Serine incorporator) | DRSC11296 | 0.34 | 0.32 | – | – | – |
| Ntf-2 (Nuclear transport factor-2) | DRSC20552 | -0.6 | -0.81 | – | – | – |
| CG10761 | DRSC17753 | 0.32 | 0.65 | – | – | – |
| Psa (Puromycin sensitive aminopeptidase) | DRSC08152 | 0.18 | 0.27 | – | – | – |
| CG33627 | DRSC05343 | -0.04 | 0.43 | – | – | – |
| CG10943 | DRSC09805 | 0.14 | 0.41 | – | – | – |
| yellow-e2 | DRSC15169 | 0.5 | -0.26 | – | – | – |
| shot (short stop) | DRSC05459 | -1.77 | -0.02 | – | – | reduced secretion |
| shot (short stop) | DRSC05460 | -0.29 | 0.07 | – | – | – |
| shot (short stop) | DRSC07682 | 0.17 | 0.22 | – | – | – |
| galla-2 | DRSC10936 | 0.06 | 0.21 | 0.39 | 0.02 | – |
| galla-2 | DRSC21949 | 0.48 | 0.33 | – | – | – |
| CG31793 | DRSC02605 | 0.24 | 0.25 | – | – | – |
| CG18233 | DRSC10308 | 0.2 | 0.33 | – | – | – |
| C3G (C3G guanyl-nucleotide exchange factor) | DRSC17745 | 0.15 | 0.4 | – | – | – |
| C3G (C3G guanyl-nucleotide exchange factor) | DRSC17929 | 0.29 | 0.42 | – | – | – |
| C3G (C3G guanyl-nucleotide exchange factor) | DRSC22329 | 0.7 | -0.08 | – | – | – |
| CG4325 | DRSC18516 | -1.62 | -0.88 | – | – | reduced secretion |
| acj6 (abnormal chemosensory jump 6) | DRSC20304 | -0.05 | 0.18 | – | – | – |
| CG7730 | DRSC10909 | 0.33 | 0.3 | – | – | – |

Records above whose gene name starts with R or r:
| Gene | DRSC id | z-score, replicate 1 | z-score, replicate 2 | z-score, replicate 3 | z-score, replicate 4 | phenotype, replicate 1 |
| --- | --- | --- | --- | --- | --- | --- |
| RpL9 (Ribosomal protein L9) | DRSC03418 | -4.7 | -4.54 | – | – | reduced secretion |
| RNASEK (Ribonuclease kappa) | DRSC21641 | 2.01 | 0.3 | – | – | – |
| RtGEF (Rho-type guanine nucleotide exchange factor) | DRSC03604 | 0.35 | 0.51 | – | – | – |
| RtGEF (Rho-type guanine nucleotide exchange factor) | DRSC22207 | 0.53 | -0.04 | – | – | – |

Further entries:
| Gene | DRSC id | z-score, replicate 1 | z-score, replicate 2 | z-score, replicate 3 | z-score, replicate 4 | phenotype, replicate 1 |
| --- | --- | --- | --- | --- | --- | --- |
| Gapvd1 (GTPase activating protein and VPS9 domains 1) | DRSC19752 | 0 | -0.15 | – | – | – |
| TSG101 (Tumor susceptibility gene 101) | DRSC11098 | -1.15 | -0.8 | – | – | – |
| CG12517 | DRSC02173 | 0.03 | -0.06 | – | – | – |
| PTPMT1 (Protein tyrosine phosphatase, mitochondrial 1) | DRSC14235 | 0.44 | 0.43 | – | – | – |
| aln (allnighter) | DRSC08240 | 0.29 | 0.29 | – | – | – |
| pnr (pannier) | DRSC17027 | 0.27 | 0.3 | – | – | – |
| Nagk (N-acetylglucosamine kinase) | DRSC15994 | 0.42 | 0.46 | – | – | – |
| Hsp67Bc (Heat shock gene 67Bc) | DRSC11193 | 0.22 | 0.46 | – | – | – |
| Sirt4 (Sirtuin 4) | DRSC18290 | 0.28 | 0.09 | – | – | – |
| Fadd (Fas-associated death domain) | DRSC14122 | 0.31 | -0.18 | – | – | – |
| ND-B16.6 (NADH dehydrogenase (ubiquinone) B16.6 subunit) | DRSC18306 | 0.38 | 0.22 | – | – | – |
| ND-B16.6 (NADH dehydrogenase (ubiquinone) B16.6 subunit) | DRSC22600 | -0.03 | -0.17 | – | – | – |
| CG11836 | DRSC14396 | 0.29 | 0.37 | – | – | – |
| ena (enabled) | DRSC05779 | 0.56 | 0.59 | – | – | – |
| ena (enabled) | DRSC07610 | 0.22 | 0.23 | – | – | – |
| Tsen34 + Trl | DRSC10014 | 0.14 | 0.2 | – | – | – |
| CG11076 | DRSC17197 | 0.21 | 0.35 | – | – | – |
| ACXA (Adenylyl cyclase X A) | DRSC00844 | 0.07 | 0.09 | – | – | – |
| eIF2A (eukaryotic translation initiation factor 2A) | DRSC11825 | 0.46 | 0.39 | – | – | – |
| CG17977 | DRSC06700 | 0.18 | 0.18 | – | – | – |
| Ir56d (Ionotropic receptor 56d) | DRSC06590 | 0.14 | 0.08 | – | – | – |
| Klp3A (Kinesin-like protein at 3A) | DRSC18676 | 0.29 | 0.36 | – | – | – |
| Klp3A (Kinesin-like protein at 3A) | DRSC21625 | -0.59 | -0.4 | – | – | – |
| CG31360 | DRSC13255 | 0.24 | 0.29 | – | – | – |
| Nmdar2 (NMDA receptor 2) | DRSC18183 | 0.46 | 0.35 | – | – | – |
| Nmdar2 (NMDA receptor 2) | DRSC18511 | 0.24 | 0.37 | – | – | – |
| Nmdar2 (NMDA receptor 2) | DRSC18569 | 0.15 | 0.31 | – | – | – |
| CG6761 | DRSC10705 | 0.43 | 0.43 | – | – | – |
| crm (cramped) | DRSC18754 | 0.62 | 0.63 | -0.1 | -0.9 | – |
| Pgi (Phosphoglucose isomerase) | DRSC07507 | 0.19 | 0.28 | – | – | – |
| Wdr59 (WD repeat domain 59) | DRSC02771 | 0.4 | 0.43 | – | – | – |
| CG1545 | DRSC21532 | -0.06 | -0.58 | – | – | – |
| CG1835 | DRSC20560 | 0.21 | 0.32 | – | – | – |
| CG10513 | DRSC14248 | -0.47 | -0.28 | – | – | – |
| CG34331 | DRSC20679 | 0.27 | 0.21 | – | – | – |
| Prosbeta7 (Proteasome beta7 subunit) | DRSC12186 | -4.93 | -4.57 | – | – | reduced secretion |
| CG9040 | DRSC11053 | 0.56 | 0.42 | – | – | – |
| gig (gigas) | DRSC11351 | 0.53 | 0.35 | – | – | – |
| CG30339 | DRSC05168 | 0.69 | – | – | – | – |
